Measured values published in patent US6394994B1, “Method for testing the ability of an iontophoretic reservoir-electrode to deliver a medicament” (Vyteris, Inc., priority 1999, dated 2002).

Assay: iontophoretic reservoir-electrode delivery test into a separation medium (ion exchange membrane), extraction and HPLC assay
Settings: for Epinephrine (mg) Mean ± SD, n = 3 / Lidocaine HCl (mg) Mean ± SD, n = 3: reservoir-electrodes from a single lot; for Epinephrine recovered (mg) Mean ± SD, n = 5: epinephrine 1.05 mg; for Lidocaine HCl (n = 3, mg) Mean ± SD: membrane pretreated with 0.9% saline

| SMILES | Epinephrine (mg) Mean ± SD, n = 3 (ion exchange membrane Lot # 1) | Epinephrine (mg) Mean ± SD, n = 3 (ion exchange membrane Lot # 2) | Epinephrine (mg) Mean ± SD, n = 3 (ion exchange membrane Lot # 3) | Epinephrine recovered (mg) Mean ± SD, n = 5 (reservoir-electrode loaded with Lidocaine HCl 25 mg/unit) | Epinephrine recovered (mg) Mean ± SD, n = 5 (reservoir-electrode loaded with Lidocaine HCl 50 mg/unit) | Epinephrine recovered (mg) Mean ± SD, n = 5 (reservoir-electrode loaded with Lidocaine HCl 100 mg/unit) | Lidocaine HCl (n = 3, mg) Mean ± SD (0 mA (passive), contact time 0.67 min) | Lidocaine HCl (n = 3, mg) Mean ± SD (0 mA (passive), contact time 1.0 min) | Lidocaine HCl (n = 3, mg) Mean ± SD (0 mA (passive), contact time 1.5 min) | Lidocaine HCl (n = 3, mg) Mean ± SD (12 mA (active), contact time 1.5 min) | Ratio (active/passive) (12 mA vs 0 mA, contact time 1.5 min) | Lidocaine HCl (n = 3, mg) Mean ± SD (18 mA (active), contact time 1.0 min) | Ratio (active/passive) (18 mA vs 0 mA, contact time 1.0 min) | Lidocaine HCl (n = 3, mg) Mean ± SD (27 mA (active), contact time 0.67 min) | Ratio (active/passive) (27 mA vs 0 mA, contact time 0.67 min) | Lidocaine HCl (mg) Mean ± SD, n = 3 (ion exchange membrane Lot # 1) | Lidocaine HCl (mg) Mean ± SD, n = 3 (ion exchange membrane Lot # 2) | Lidocaine HCl (mg) Mean ± SD, n = 3 (ion exchange membrane Lot # 3) | ratio of active (iontophoretic) delivery to passive (diffusive) delivery (membrane pretreated with 0.18% calcium chloride for 24 hours (FIG. 7)) | ratio of active to passive delivery (membrane pretreated with 0.9% aqueous saline (NaCl) for 24 hours (FIG. 8)) |
| --- | --- | --- | --- | --- | --- | --- | --- | --- | --- | --- | --- | --- | --- | --- | --- | --- | --- | --- | --- | --- |
| CNC[C@H](O)c1ccc(O)c(O)c1 [Epinephrine, epinephrine bitartrate] | 0.020 ± 0.001 mg | 0.017 ± 0.001 mg | 0.018 ± 0.001 mg | 0.075 ± 0.002 mg | 0.041 ± 0.001 mg | 0.02 ± 0.001 mg | – | – | – | – | – | – | – | – | – | – | – | – | – | – |
| CCN(CC)CC(=O)Nc1c(C)cccc1C [Lidocaine HCl, lidocaine HCl] | – | – | – | – | – | – | 0.25 ± 0.02 mg | 0.32 ± 0.05 mg | 0.39 ± 0.05 mg | 2.39 ± 0.08 mg | 6.2 | 2.47 ± 0.09 mg | 7.7 | 2.62 ± 0.09 mg | 10.3 | 2.46 ± 0.02 mg | 2.38 ± 0.05 mg | 2.37 ± 0.04 mg | 11.6 | about 7.7 |

Structures can show the parent of a compound that is named as a salt.
